From patent publication US20100255006A1
No constants are given. Whether binding was seen depends on the method and setting. For some of these results: In cells and extracts the contact can be indirect. Some results given as binding are weak or reduced against the parent protein; the word gives no strength.

Amino acid sequences for entries named in this document (tags omitted). A change or cut given only in a name is not applied to a line headed by its entry. Residues count along the entry.
UniProt P29466: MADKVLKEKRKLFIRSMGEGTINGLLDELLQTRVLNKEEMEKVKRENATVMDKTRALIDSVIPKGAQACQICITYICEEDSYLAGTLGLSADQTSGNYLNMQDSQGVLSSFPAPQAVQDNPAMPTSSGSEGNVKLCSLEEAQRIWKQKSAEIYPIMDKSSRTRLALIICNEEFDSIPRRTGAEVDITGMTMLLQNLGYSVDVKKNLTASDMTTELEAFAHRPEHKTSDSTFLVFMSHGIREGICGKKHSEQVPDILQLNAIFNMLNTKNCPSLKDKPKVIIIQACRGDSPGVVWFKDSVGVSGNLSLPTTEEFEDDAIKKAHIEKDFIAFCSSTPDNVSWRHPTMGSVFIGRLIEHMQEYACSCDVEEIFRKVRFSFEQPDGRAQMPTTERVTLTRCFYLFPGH
CARD of caspase-1 (mammalian two-hybrid construct): residues 1-91 of P29466
UniProt Q9ULZ3: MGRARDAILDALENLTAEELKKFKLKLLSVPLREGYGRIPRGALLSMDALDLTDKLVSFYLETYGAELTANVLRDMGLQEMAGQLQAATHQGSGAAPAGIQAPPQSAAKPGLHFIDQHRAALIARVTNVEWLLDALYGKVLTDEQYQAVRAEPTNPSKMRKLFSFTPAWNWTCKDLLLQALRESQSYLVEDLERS

Legend:
[1] = biological target: CARD of caspase-1 (mammalian two-hybrid construct) (UniProt P29466); experiment: mammalian two-hybrid in 293T cells, luciferase reporter
[2] = biological target: CARD of caspase-1 (mammalian two-hybrid construct) (UniProt P29466); experiment: mammalian two-hybrid (legend of FIG. 13A)
[3] = biological target: T7-tagged caspase-1 (UniProt P29466); experiment: co-immunoprecipitation with anti-HA antibodies, immunoblot with an anti-caspase-1 antibody
[4] = biological target: T7-tagged caspase-1 (UniProt P29466); experiment: co-immunoprecipitation with anti-HA antibodies, immunoblot with an anti-caspase-1 antibody (legend of FIG. 13B)

binding [1] | binding [2] | binding [3] | binding [4] | Substance
binds | binds | – | – | CARD of CARD-5 (mammalian two-hybrid construct) (from UniProt Q9ULZ3 107-195)
– | – | binds | binds | HA-tagged CARD-5 (from UniProt Q9ULZ3 1-195)
